Laboratory results: the supplement of paper PMC7661543
± gives the standard deviation of the averaged measurements. Differences between knockout arms are mostly noise.

Test system: ZR-75-1
Assay: relative cell number vs DMSO control (72 h) (% of DMSO); higher = less growth inhibition (more cells)
Description: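 QMAP-Seq: a pool of 5 breast cancer cell lines (ZR-75-1, SKBR3, HCC-38, MDA-MB-231, BT-20), each carrying 12 doxycycline-inducible Cas9 sgRNA perturbations (11 knockouts plus non-targeting sgNT), was treated with compounds for 72 h at four 10-fold doses (10 nM-10 uM or 1 nM-1 uM range). Barcodes were amplified and sequenced, and cell number was interpolated from 293T spike-in standard curves. The result is expressed as % of the median of DMSO wells. Two biological replicates.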

[1] = sgRNA knockout: sgATF3, 1000 nM
[2] = sgRNA knockout: sgATF3, 10000 nM
[3] = sgRNA knockout: sgATF4, 1000 nM
[4] = sgRNA knockout: sgATF4, 10000 nM
[5] = sgRNA knockout: sgATF6, 1000 nM
[6] = sgRNA knockout: sgATF6, 10000 nM
[7] = sgRNA knockout: sgATG7, 1000 nM
[8] = sgRNA knockout: sgATG7, 10000 nM
[9] = sgRNA knockout: sgERN1, 1000 nM
[10] = sgRNA knockout: sgERN1, 10000 nM
[11] = sgRNA knockout: sgHSF2, 1000 nM
[12] = sgRNA knockout: sgHSF2, 10000 nM
[13] = sgRNA knockout: sgNFE2L2, 10 nM
[14] = sgRNA knockout: sgNFE2L2, 100 nM
[15] = sgRNA knockout: sgNFE2L2, 1000 nM
[16] = sgRNA knockout: sgNFE2L2, 10000 nM
[17] = sgRNA knockout: sgSLC35F2, 10 nM
[18] = sgRNA knockout: sgSLC35F2, 100 nM
[19] = sgRNA knockout: sgSLC35F2, 1000 nM
[20] = sgRNA knockout: sgSLC35F2, 10000 nM
[21] = sgRNA knockout: sgXBP1, 1000 nM
[22] = sgRNA knockout: sgXBP1, 10000 nM

Row | Compound | relative cell number (sgRNA knockout: sgATF3, 10 nM) | relative cell number (sgRNA knockout: sgATF3, 100 nM) | relative cell number [1] | relative cell number [2] | relative cell number (sgRNA knockout: sgATF4, 10 nM) | relative cell number (sgRNA knockout: sgATF4, 100 nM) | relative cell number [3] | relative cell number [4] | relative cell number (sgRNA knockout: sgATF6, 10 nM) | relative cell number (sgRNA knockout: sgATF6, 100 nM) | relative cell number [5] | relative cell number [6] | relative cell number (sgRNA knockout: sgATG7, 10 nM) | relative cell number (sgRNA knockout: sgATG7, 100 nM) | relative cell number [7] | relative cell number [8] | relative cell number (sgRNA knockout: sgERN1, 10 nM) | relative cell number (sgRNA knockout: sgERN1, 100 nM) | relative cell number [9] | relative cell number [10] | relative cell number (sgRNA knockout: sgHSF2, 10 nM) | relative cell number (sgRNA knockout: sgHSF2, 100 nM) | relative cell number [11] | relative cell number [12] | relative cell number [13] | relative cell number [14] | relative cell number [15] | relative cell number [16] | relative cell number [17] | relative cell number [18] | relative cell number [19] | relative cell number [20] | relative cell number (sgRNA knockout: sgXBP1, 10 nM) | relative cell number (sgRNA knockout: sgXBP1, 100 nM) | relative cell number [21] | relative cell number [22]
1 | Cc1nc(Nc2ncc(C(=O)Nc3c(C)cccc3Cl)s2)cc(N2CCN(CCO)CC2)n1 [Dasatinib] | 90.1 ± 5.7 | 79 ± 20 | 75.6 ± 20 | 71.5 ± 16 | 67.7 ± 51 | 82.2 ± 41 | 77.6 ± 12 | 55.1 ± 20 | 104 ± 21 | 72.1 ± 43 | 42.8 ± 5.6 | 47.1 ± 4.8 | 73.7 ± 32 | 86.8 ± 7.2 | 85.7 ± 9.7 | 58.4 ± 22 | 62.5 ± 14 | 83.6 ± 8.9 | 51.8 ± 6.3 | 39.5 ± 10 | 85.66 ± 0.21 | 93.7 ± 8.1 | 65.5 ± 13 | 54.1 ± 9.4 | 103 ± 28 | 85.3 ± 25 | 70.2 ± 1.3 | 56.6 ± 12 | 79.9 ± 2.9 | 73.3 ± 50 | 59.8 ± 6 | 42.7 ± 15 | 97.6 ± 7.7 | 95.9 ± 9.2 | 62.2 ± 6.2 | 49.9 ± 3.3
2 | C#Cc1cccc(Nc2ncnc3cc(OCCOC)c(OCCOC)cc23)c1 [Erlotinib] | 108 ± 40 | 83.6 ± 2.7 | 95.6 ± 9.8 | 69.9 ± 8.6 | 127 ± 9.6 | 106 ± 25 | 83.1 ± 15 | 60.6 ± 3 | 84.3 ± 10 | 110 ± 34 | 79.6 ± 20 | 78 ± 19 | 91.3 ± 7.8 | 98.2 ± 36 | 71.2 ± 16 | 86.5 ± 39 | 117 ± 10 | 110 ± 2.3 | 110 ± 8.3 | 81.1 ± 5.4 | 98.5 ± 29 | 78.8 ± 3.4 | 92.1 ± 31 | 66.5 ± 11 | 119 ± 11 | 88.6 ± 12 | 86.5 ± 9.1 | 57.7 ± 0.87 | 97 ± 22 | 79.4 ± 34 | 87.2 ± 1.5 | 47.48 ± 0.074 | 101 ± 14 | 89.8 ± 9.2 | 89.2 ± 14 | 70 ± 7.3
3 | Nc1ccn([C@@H]2O[C@H](CO)[C@@H](O)C2(F)F)c(=O)n1 [Gemcitabine] | 64.9 ± 14 | 31.1 ± 6.6 | 28.9 ± 5.5 | 21.6 ± 3.6 | 56.3 ± 25 | 33.8 ± 5.7 | 28.3 ± 18 | 16.2 ± 11 | 38.8 ± 5.5 | 27.6 ± 6.7 | 21.2 ± 8.1 | 17.1 ± 2.8 | 47.3 ± 6.5 | 39.2 ± 12 | 25.5 ± 7.9 | 18.1 ± 5.7 | 42.73 ± 0.16 | 36 ± 9.5 | 36.4 ± 4.9 | 27.6 ± 0.82 | 45.8 ± 2.1 | 33.4 ± 4.4 | 24 ± 8.1 | 23.4 ± 5.5 | 49.55 ± 0.16 | 23.2 ± 0.63 | 26.4 ± 9.9 | 21.7 ± 2.2 | 47.7 ± 1.9 | 39.6 ± 14 | 20.5 ± 1.1 | 21.1 ± 7.1 | 40.8 ± 4 | 24.7 ± 4.2 | 26.3 ± 5.5 | 20.1 ± 4.1
